Experimental data reported in patent publication US20060258562A1.
No constants are given. Whether binding was seen depends on the method and setting. In cells and extracts the contact can be indirect. Some binding calls cover weakened binding; strength is not graded here.

Chains of the proteins cited; added tags and fusions are not shown. Lines headed by an entry give the natural chain unless they say otherwise; changes in a name come on top. Residues count along the entry.
UniProt P42227, residues 2-770: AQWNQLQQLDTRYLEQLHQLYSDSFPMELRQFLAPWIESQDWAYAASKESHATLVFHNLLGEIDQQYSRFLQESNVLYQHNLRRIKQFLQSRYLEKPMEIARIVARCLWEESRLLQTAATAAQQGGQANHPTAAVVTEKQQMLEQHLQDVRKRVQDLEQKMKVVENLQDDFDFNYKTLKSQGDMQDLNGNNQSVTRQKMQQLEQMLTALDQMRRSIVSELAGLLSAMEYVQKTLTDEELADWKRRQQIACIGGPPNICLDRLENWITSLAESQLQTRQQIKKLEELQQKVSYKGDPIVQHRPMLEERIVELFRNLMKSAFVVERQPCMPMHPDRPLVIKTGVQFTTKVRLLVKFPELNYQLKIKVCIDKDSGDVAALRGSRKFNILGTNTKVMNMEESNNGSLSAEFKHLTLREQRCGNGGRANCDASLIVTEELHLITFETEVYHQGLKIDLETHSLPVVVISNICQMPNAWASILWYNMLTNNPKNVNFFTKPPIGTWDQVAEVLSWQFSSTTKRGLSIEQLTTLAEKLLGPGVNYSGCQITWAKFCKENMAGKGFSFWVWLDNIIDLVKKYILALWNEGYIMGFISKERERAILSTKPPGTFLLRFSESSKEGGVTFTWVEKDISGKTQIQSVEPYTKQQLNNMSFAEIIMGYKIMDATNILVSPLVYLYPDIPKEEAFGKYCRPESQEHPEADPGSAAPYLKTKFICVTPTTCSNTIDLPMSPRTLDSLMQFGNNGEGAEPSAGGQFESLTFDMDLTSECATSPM
UniProt P28867: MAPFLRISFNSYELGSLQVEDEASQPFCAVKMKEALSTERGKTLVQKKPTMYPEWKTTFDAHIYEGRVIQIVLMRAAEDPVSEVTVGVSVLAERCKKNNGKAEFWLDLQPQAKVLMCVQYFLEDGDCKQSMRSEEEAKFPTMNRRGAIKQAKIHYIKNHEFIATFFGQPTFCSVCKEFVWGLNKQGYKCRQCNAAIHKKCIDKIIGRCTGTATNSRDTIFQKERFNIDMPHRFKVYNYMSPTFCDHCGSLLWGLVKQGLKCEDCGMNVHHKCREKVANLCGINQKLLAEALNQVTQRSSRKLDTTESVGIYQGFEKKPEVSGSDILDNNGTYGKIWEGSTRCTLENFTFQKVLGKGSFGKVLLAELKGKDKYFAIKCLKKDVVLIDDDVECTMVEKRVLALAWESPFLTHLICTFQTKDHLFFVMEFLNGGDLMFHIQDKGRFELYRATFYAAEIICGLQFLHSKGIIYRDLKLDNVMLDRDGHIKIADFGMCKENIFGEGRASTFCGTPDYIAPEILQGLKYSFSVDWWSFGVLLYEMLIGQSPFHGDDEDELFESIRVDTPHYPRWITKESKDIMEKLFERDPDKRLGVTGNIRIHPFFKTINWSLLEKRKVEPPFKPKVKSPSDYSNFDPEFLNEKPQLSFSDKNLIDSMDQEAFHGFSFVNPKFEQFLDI

How the values were obtained:
[1] = target: STAT3 (Signal Transducer and Activator of Transcription 3) (mouse) (UniProt P42227); assay: co-immunoprecipitation from primary keratinocyte lysates
[2] = target: STAT3 (Signal Transducer and Activator of Transcription 3) (mouse) (UniProt P42227); assay: co-immunoprecipitation with isoform specific PKC antibodies, anti-STAT3 Western blot

## PKCδ (protein kinase C delta) (from UniProt P28867 1-674) (enzyme)
[1]
  binding: binds
[2]
  binding: binds
